{"source": "PubChem BioAssay AID652259 (Drosophila RNAi Screening Center, 2013)", "test": "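Knock-downs that push a Wingless-driven reporter up or down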 (primary screen)", "system": "Drosophila clone 8 imaginal disc epithelial cells", "reagent": "long dsRNA against Drosophila genes", "conditions": "pathway stimulated by co-transfected Wingless expression plasmid", "read-out": "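Dual luciferase reads per well after Wingless plasmid stimulation: reporter firefly light and Renilla control light; activity is firefly divided by Renilla, a ratio not deposited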", "direction": "firefly reporter light: higher = more Wg reporter light, before normalisation; Renilla control light: higher = more transfected or surviving cells", "rule for the call": "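a knock-down is a candidate when at least two out of four statistical tests show it departing from its plate mean; one test alone signals a weak candidate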", "meaning of the calls": "active = candidate regulator (raises or lowers reporter); inactive = not a candidate", "note": "The deposit covers about 22,000 reagents; shown is a random part of those with a known target gene and a result. Of all reagents, 233 (1.1%) got an active call. 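Light values are raw, unnormalised plate reads; the ratio scores behind the reporter calls were not deposited.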 The numbers tell different reagents against one gene apart. Not given: the amount of reagent, the time to read-out, the dose of the treatment."}
{"Target gene": "Ype", "reagent no.": 1, "firefly reporter light, replicate 1": 2855, "firefly reporter light, replicate 2": 7612, "Renilla control light, replicate 1": 1104, "Renilla control light, replicate 2": 2765, "activity call": "inactive"}
{"Target gene": "tbc", "reagent no.": 1, "firefly reporter light, replicate 1": 18234, "Renilla control light, replicate 1": 6432, "activity call": "inactive"}
{"Target gene": "pros", "reagent no.": 1, "firefly reporter light, replicate 1": 2410, "Renilla control light, replicate 1": 1507, "activity call": "inactive"}
{"Target gene": "pros", "reagent no.": 2, "firefly reporter light, replicate 1": 9776, "Renilla control light, replicate 1": 4490, "activity call": "inactive"}
{"Target gene": "pros", "reagent no.": 3, "firefly reporter light, replicate 1": 7.35e5, "firefly reporter light, replicate 2": 7.54e5, "Renilla control light, replicate 1": 1.28e5, "Renilla control light, replicate 2": 1.12e5, "activity call": "inactive"}
{"Target gene": "CG15767", "reagent no.": 1, "firefly reporter light, replicate 1": 24898, "Renilla control light, replicate 1": 9476, "activity call": "inactive"}
{"Target gene": "Vha16-5", "reagent no.": 1, "firefly reporter light, replicate 1": 2992, "firefly reporter light, replicate 2": 9067, "Renilla control light, replicate 1": 1325, "Renilla control light, replicate 2": 4694, "activity call": "inactive"}
{"Target gene": "Rrp40", "reagent no.": 1, "firefly reporter light, replicate 1": 27978, "Renilla control light, replicate 1": 12277, "activity call": "inactive"}
{"Target gene": "RpL32", "reagent no.": 1, "firefly reporter light, replicate 1": 6459, "Renilla control light, replicate 1": 1671, "activity call": "inactive"}
{"Target gene": "thw", "reagent no.": 1, "firefly reporter light, replicate 1": 20224, "Renilla control light, replicate 1": 4304, "activity call": "inactive"}
{"Target gene": "ergic53", "reagent no.": 1, "firefly reporter light, replicate 1": 1257, "firefly reporter light, replicate 2": 7152, "Renilla control light, replicate 1": 1264, "Renilla control light, replicate 2": 3527, "activity call": "inactive"}
{"Target gene": "BBS8", "reagent no.": 1, "firefly reporter light, replicate 1": 5450, "firefly reporter light, replicate 2": 12587, "Renilla control light, replicate 1": 1754, "Renilla control light, replicate 2": 3766, "activity call": "inactive"}

Only “Renilla control light, replicate 1”, for 2 of the entries above:
Vha16-5 = 1325
Rrp40 = 12277
